The results in this text go back to paper PMC6838198, “Insights into the assembly and architecture of a Staufen-mediated mRNA decay (SMD)-competent mRNP” (Nature Communications, 2019).

Chains of the proteins cited; added tags and fusions are not shown. Lines headed by an entry give the natural chain unless they say otherwise; changes in a name come on top.
UniProt O95793: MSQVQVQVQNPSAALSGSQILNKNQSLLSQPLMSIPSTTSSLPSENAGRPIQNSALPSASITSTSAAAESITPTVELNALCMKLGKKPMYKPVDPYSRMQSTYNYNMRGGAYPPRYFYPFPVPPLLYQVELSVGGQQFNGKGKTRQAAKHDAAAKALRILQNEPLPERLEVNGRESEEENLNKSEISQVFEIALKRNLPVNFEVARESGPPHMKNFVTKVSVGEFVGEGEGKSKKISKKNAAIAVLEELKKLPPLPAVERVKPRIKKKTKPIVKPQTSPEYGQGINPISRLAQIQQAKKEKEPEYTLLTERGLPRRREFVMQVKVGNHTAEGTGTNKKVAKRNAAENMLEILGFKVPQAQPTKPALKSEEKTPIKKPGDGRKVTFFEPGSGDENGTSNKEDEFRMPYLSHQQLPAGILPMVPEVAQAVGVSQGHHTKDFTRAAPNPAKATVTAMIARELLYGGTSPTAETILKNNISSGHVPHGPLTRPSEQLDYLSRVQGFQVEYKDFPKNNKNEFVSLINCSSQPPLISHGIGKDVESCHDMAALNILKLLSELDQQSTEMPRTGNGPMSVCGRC
UniProt Q9HAU5: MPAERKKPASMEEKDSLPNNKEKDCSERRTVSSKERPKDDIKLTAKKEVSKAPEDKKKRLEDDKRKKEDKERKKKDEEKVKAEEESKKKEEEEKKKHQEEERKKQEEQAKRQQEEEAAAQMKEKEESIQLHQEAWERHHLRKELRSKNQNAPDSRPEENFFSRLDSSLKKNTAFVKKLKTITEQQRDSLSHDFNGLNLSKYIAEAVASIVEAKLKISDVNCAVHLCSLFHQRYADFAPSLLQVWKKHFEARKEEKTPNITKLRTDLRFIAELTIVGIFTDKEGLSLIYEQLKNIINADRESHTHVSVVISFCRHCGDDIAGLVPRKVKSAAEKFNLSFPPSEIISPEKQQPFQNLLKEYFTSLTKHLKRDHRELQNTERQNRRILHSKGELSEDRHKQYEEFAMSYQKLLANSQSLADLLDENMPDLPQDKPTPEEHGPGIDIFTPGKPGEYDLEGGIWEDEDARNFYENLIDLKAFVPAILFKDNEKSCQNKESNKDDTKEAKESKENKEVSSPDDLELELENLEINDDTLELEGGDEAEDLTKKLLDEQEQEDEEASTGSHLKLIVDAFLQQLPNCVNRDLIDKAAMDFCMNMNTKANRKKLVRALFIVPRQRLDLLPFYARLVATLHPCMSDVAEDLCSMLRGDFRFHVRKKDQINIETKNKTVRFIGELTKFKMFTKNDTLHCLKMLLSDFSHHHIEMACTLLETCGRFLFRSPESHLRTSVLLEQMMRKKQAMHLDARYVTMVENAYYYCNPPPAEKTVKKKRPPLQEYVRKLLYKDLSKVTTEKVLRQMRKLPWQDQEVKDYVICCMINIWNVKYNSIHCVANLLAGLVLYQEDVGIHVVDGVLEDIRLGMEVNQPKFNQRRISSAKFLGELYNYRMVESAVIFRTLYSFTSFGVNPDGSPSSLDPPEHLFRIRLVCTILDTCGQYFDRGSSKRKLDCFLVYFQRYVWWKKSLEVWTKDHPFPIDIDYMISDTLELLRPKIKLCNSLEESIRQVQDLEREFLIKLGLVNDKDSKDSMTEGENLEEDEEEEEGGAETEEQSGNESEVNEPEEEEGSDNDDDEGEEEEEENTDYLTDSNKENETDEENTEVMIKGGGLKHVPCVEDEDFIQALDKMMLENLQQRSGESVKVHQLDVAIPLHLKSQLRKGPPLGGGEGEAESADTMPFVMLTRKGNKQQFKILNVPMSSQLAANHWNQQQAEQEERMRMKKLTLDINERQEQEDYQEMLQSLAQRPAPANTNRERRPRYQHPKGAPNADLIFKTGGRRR

No constants are given. Whether binding was seen depends on the method and setting. For part of these data: In cells and extracts the contact can be indirect. Some results given as binding are weak or reduced against the parent protein; the word gives no strength. For part of these data: Where a sequence is shown, tags or fusion partners need not be part of it.

Test [1] concerns the target Flag-Stau1, full length (human) (UniProt O95793). As to the kind of experiment: co-IP; Flag-Stau1, HA-UPF1 and HA-UPF2 co-transfected in HEK 293T; RIPA lysate with RNase A (60 µg/mL); anti-Flag M2 resin, 4 °C 1.5 h; anti-HA and anti-Flag blots.
Test [2] concerns the target GST-Stau1, full length (human) (UniProt O95793). Nature of the test: pull-down; GST-tagged bait and prey mixed in equal amounts, 4 °C 16 h, Glutathione Sepharose; 20 mM HEPES pH 7.5, 150 mM NaCl, 10% glycerol, 0.1% NP-40; eluted with 20 mM glutathione, SDS-PAGE and Coomassie; bands quantified with ImageJ; both purified.

As for “HA-UPF2, full length (from UniProt Q9HAU5 1-1272)”, the binding entry in test [1] was “binds”. For “UPF2 (126–1227) (from UniProt Q9HAU5 126-1227) (domain or fragment)”, in test [2], the binding result is “binds”.

B1: HA-UPF1, full length (protein, UniProt Q92900-2 1-1118)
chain: MSVEAYGPSSQTLTFLDTEEAELLGADTQGSEFEFTDFTLPSQTQTPPGGPGGPGGGGAGGPGGAGAGAAAGQLDAQVGPEGILQNGAVDDSVAKTSQLLAELNFEEDEEDTYYTKDLPIHACSYCGIHDPACVVYCNTSKKWFCNGRGNTSGSHIVNHLVRAKCKEVTLHKDGPLGETVLECYNCGCRNVFLLGFIPAKADSVVVLLCRQPCASQSSLKDINWDSSQWQPLIQDRCFLSWLVKIPSEQEQLRARQITAQQINKLEELWKENPSATLEDLEKPGVDEEPQHVLLRYEDAYQYQNIFGPLVKLEADYDKKLKESQTQDNITVRWDLGLNKKRIAYFTLPKTDSDMRLMQGDEICLRYKGDLAPLWKGIGHVIKVPDNYGDEIAIELRSSVGAPVEVTHNFQVDFVWKSTSFDRMQSALKTFAVDETSVSGYIYHKLLGHEVEDVIIKCQLPKRFTAQGLPDLNHSQVYAVKTVLQRPLSLIQGPPGTGKTVTSATIVYHLARQGNGPVLVCAPSNIAVDQLTEKIHQTGLKVVRLCAKSREAIDSPVSFLALHNQIRNMDSMPELQKLQQLKDETGELSSADEKRYRALKRTAERELLMNADVICCTCVGAGDPRLAKMQFRSILIDESTQATEPECMVPVVLGAKQLILVGDHCQLGPVVMCKKAAKAGLSQSLFERLVVLGIRPIRLQVQYRMHPALSAFPSNIFYEGSLQNGVTAADRVKKGFDFQWPQPDKPMFFYVTQGQEEIASSGTSYLNRTEAANVEKITTKLLKAGAKPDQIGIITPYEGQRSYLVQYMQFSGSLHTKLYQEVEIASVDAFQGREKDFIILSCVRANEHQGIGFLNDPRRLNVALTRARYGVIIVGNPKALSKQPLWNHLLNYYKEQKVLVEGPLNNLRESLMQFSKPRKLVNTINPGARFMTTAMYDAREAIIPGSVYDRSSQGRPSSMYFQTHDQIGMISAGPSHVAAMNIPIPFNLVMPPMPPPGYFGQANGPAAGRGTPKGKTGRGGRQKNRFGLPGPSQTNLPNSQASQDVASQPFSQGALTQGYISMSQPSQMSQPGLSQPELSQDSYLGDEFKSQIDVALSQDSTYQGERAYQHGGVTGLSQY
As for B1, the binding result in test [1] is recorded as “binds”.
